Among all 300,000 compounds or so, about 3,700 (1.2%) were called active. The inconclusive results got no clear call from the source; some entries with a clear call stand among them for comparison. Calls come from the whole dose curve; tested in HEK293 cells. Potencies beside an inconclusive call are fits to weak or partial responses and may not hold up.
Test: qHTS for Inhibitors of binding or entry into cells for Lassa Virus; note: nearly all actives have a fitted effect of over 50% in size
Settings: Lassa virus pseudotype entry inhibition, cell reporter; series mostly up to 37.9 µM
Potency is the fitted concentration of half-maximal effect.

Row | SMILES | Potency
1 | c1ccc2c(CCNc3ncnc4nc[nH]c34)c[nH]c2c1 | inconclusive: 13 µM [inhibitor, partial curve, poor fit]
2 | COc1ccccc1/C=N/NC(=O)c1ccc(-c2ccccc2)cc1 | inactive
3 | COc1ccc(NC(=O)C2=C(C)NC(=S)NC2c2ccc(O)c(OC)c2)cc1 (stereo unspecified) | inactive
4 | CN(c1ccc(NC(=O)Nc2ccc(OC(F)(F)F)cc2)cc1)c1ccnc(Nc2cccc(S(N)(=O)=O)c2)n1 | active: 25 µM
5 | O=C(COc1cccc(F)c1)Oc1ccc(C(=O)c2ccccc2)cc1 | inconclusive: 10 µM [activator, partial curve, poor fit]
6 | COc1ccc2nc(-c3ccco3)c(-c3ccco3)nc2c1 | inactive
7 | O=C(NN=Cc1ccc(N(CCCl)CCCl)cc1Cl)c1cccnc1 | inconclusive: 11.2 µM [inhibitor, partial curve, poor fit]
8 | O=C(CCN1C(=O)c2ccccc2C1=O)Nc1ccc(-c2nc3ccccc3s2)cc1 | inconclusive: 11.2 µM [inhibitor, single point]
9 | Cc1ccc(OCCNC(=O)C(=O)NCc2ccco2)cc1 | inconclusive: 6.31 µM [inhibitor, single point]
10 | CCN(CC)CCN(C(=O)C1=COCCO1)c1nc2cc(C)cc(C)c2s1 | inactive
11 | CCOc1ccccc1/C=C/c1cc(C(=O)O)c2ccccc2n1 | inactive
12 | COc1ccccc1CC(=O)Nc1cc(OC)c(NC(=O)c2ccccc2)cc1OC | inconclusive: 35.5 µM [inhibitor, single point]
13 | S=C(NC1CCCCC1)NC1CC2C=CC1C2 (stereo unspecified) | inconclusive: 0.708 µM [inhibitor, partial curve, poor fit]
14 | O=C(CNCc1ccc(F)cc1)Nc1ccccc1-c1ccccc1 | inconclusive: 1.58 µM [activator, partial curve, poor fit]
15 | O=C(NCc1cccs1)c1cc(-c2ccccc2)on1 | inactive
16 | CCOC(=O)C1CCCN(C(=O)c2cc(-c3ccc(F)cc3)nc3ccccc23)C1 (stereo unspecified) | inconclusive: 35.5 µM [inhibitor, single point]
17 | Cc1cc(C)n(-c2nc3c(c(=O)[nH]c(=O)n3C)n2Cc2ccccc2)n1 | inactive
18 | c1ccc(C(c2ccccc2)N2CCN(Cc3nnnn3C3CCCC3)CC2)cc1 | inconclusive: 35.5 µM [inhibitor, single point]
19 | O=C(COc1ccccc1)Nc1ccc(N2CCN(C(=O)c3ccco3)CC2)cc1 | inconclusive: 35.5 µM [activator, single point]
20 | Cc1ccc(Nc2nc(C(=O)N3CCC(C(=O)N4CCN(C)CC4)CC3)cs2)cc1 | inconclusive: 25.9 µM [activator, single point]
21 | Cc1ccc2oc(=O)cc(/C=C/c3ccccc3)c2c1 | inconclusive: 29.1 µM [inhibitor, single point]
22 | O=C(OCc1ccc(C(=O)c2ccccc2)cc1)c1cccc(-c2nnc(-c3ccccc3)o2)c1 | inconclusive: 25.9 µM [inhibitor, partial curve, poor fit]
23 | Cc1cc(-c2cn3ccccc3n2)c(C)n1-c1ccccc1 | inconclusive: 35.5 µM [inhibitor, single point]
24 | COc1cc(/C=N/NC(=O)c2cccs2)ccc1OCc1ccccc1 | inactive

Nothing new here: entries from further up.
Row | SMILES | Potency
17 | Cc1cc(C)n(-c2nc3c(c(=O)[nH]c(=O)n3C)n2Cc2ccccc2)n1 | inactive
18 | c1ccc(C(c2ccccc2)N2CCN(Cc3nnnn3C3CCCC3)CC2)cc1 | inconclusive: 35.5 µM [inhibitor, single point]

The list goes on.

Row | SMILES | Potency
25 | CC(C)C(C)(C#N)NC(=O)CSc1nnc(-c2ccncc2)n1Cc1ccccc1 (stereo unspecified) | inactive
26 | CCn1c(SCC(=O)NC2CCCCC2)nc2c(c1=O)SC(C)C2 (stereo unspecified) | inactive
27 | O=C(Nc1nc2ccccc2n1CCN1CCOCC1)c1cccc([N+](=O)[O-])c1 | inactive
28 | O=C(NC(=S)Nc1ccc(F)cc1)c1ccc2c(c1)OCCO2 | active: 13 µM
29 | CC(=O)c1ccc(N2CCN(CC(=O)Nc3ccc4c(c3)OCCO4)CC2)cc1 | inconclusive: 0.112 µM [inhibitor, full curve, poor fit]
30 | COc1ccc(OC)c(NC(=O)C2Cc3ccccc3CN2S(=O)(=O)c2ccc(F)cc2)c1 (stereo unspecified) | inconclusive: 5.62 µM [inhibitor, single point]
31 | COc1cc(-c2nnc(COC(=O)c3ccc(C)o3)o2)cc(OC)c1OC | inactive
32 | COc1ccc(NS(=O)(=O)c2cc(C)ccc2NC(=O)c2cc(C)oc2C)cc1 | inconclusive: 35.5 µM [inhibitor, partial curve, poor fit]
33 | COCCn1c(-c2ccc(OC)cc2)cnc1SCC(=O)Nc1ccc(OC)cc1OC | inconclusive: 29.1 µM [inhibitor, single point]
34 | CC12C(=O)N(c3ccc(OC(=O)c4ccco4)cc3)C(=O)C1C1c3ccccc3C2c2ccccc21 (stereo unspecified) | inactive
35 | COc1ccc(NC(=O)c2ccc3nc[nH]c3c2)c(OC)c1 | inactive
36 | CCOc1cccc(C(=O)NC(=S)Nc2cccc(C)c2)c1 | inconclusive: 17.8 µM [inhibitor, single point]
37 | COc1ccc(N(C(=O)c2snc(C(N)=O)c2N)C(C(=O)NC2CCCCC2)c2ccc(C)o2)cc1 (stereo unspecified) | inconclusive: 10 µM [inhibitor, partial curve, poor fit]
38 | CCC(C)c1ccccc1OCCCCN1CCCC1 (stereo unspecified) | inconclusive: 13 µM [inhibitor, partial curve]
39 | O=C(Nc1ccc(Cl)cc1)NC1CCCc2ccccc21 (stereo unspecified) | inconclusive: 15.8 µM [inhibitor, single point]
40 | CC(C)CCNC(=O)CSc1nc2ccsc2c(=O)n1NC(=O)c1ccccc1 | inactive
41 | Cc1cc(NC(=O)CSc2nc(C)c(C)n2CC(C)C)no1 | inconclusive: 7.94 µM [inhibitor, partial curve, poor fit]
42 | CC(C)(C)OC(=O)N/N=C\C=C\c1ccc2c(c1)OCO2 | inconclusive: 10 µM [inhibitor, partial curve, poor fit]
43 | COc1ccc(C(=O)NCCN(C)C)c2nc3ccccc3cc12 | inconclusive: 1.26 µM [inhibitor, partial curve, poor fit]
44 | COCCOC(=O)C1=C(C)NC(=O)NC1c1cn(-c2ccccc2)nc1-c1cccs1 (stereo unspecified) | inactive
45 | COCCn1nnnc1C(c1cc2cc(C)cc(C)c2[nH]c1=O)N1CCN(c2ccccc2F)CC1 (stereo unspecified) | inconclusive: 0.0073 µM [inhibitor, full curve, poor fit]
46 | CCc1nc2ccccc2c(C(=O)OCC(=O)N2CC(C)OC(C)C2)c1C (stereo unspecified) | inactive
47 | CC1CCN(C(=O)c2cc(-c3ccco3)on2)CC1 | inconclusive: 25.1 µM [inhibitor, single point]
48 | O=[N+]([O-])c1ccc2c(c1)S(=O)(=O)C=C2 | active: 3.26 µM

Of the compounds above, these have a nitro group on carbon:
Row | SMILES | Potency
27 | O=C(Nc1nc2ccccc2n1CCN1CCOCC1)c1cccc([N+](=O)[O-])c1 | inactive
48 | O=[N+]([O-])c1ccc2c(c1)S(=O)(=O)C=C2 | active: 3.26 µM

Remaining list, next part:

Row | SMILES | Potency
49 | COc1ccccc1NC(=O)CN1C(=O)CC(C)S(=O)(=O)c2ccccc21 (stereo unspecified) | inactive
50 | CCOc1ccccc1N1CCN(C(=O)c2ccc(Cl)c(S(=O)(=O)N3CCCCC3)c2)CC1 | inconclusive: 12.6 µM [inhibitor, partial curve, poor fit]
51 | Brc1ccc2[nH]c3c(c2c1)CCC3 | active: 8.91 µM
52 | O=C(Nc1cccc(-c2ccc(N3CCOCC3)nn2)c1)c1ccc(F)cc1F | inconclusive: 2.82 µM [inhibitor, partial curve, poor fit]
53 | CCC(C(=O)NCCc1ccccc1)n1nc(C)c2sc3ccccc3c2c1=O (stereo unspecified) | inactive
54 | CCc1ccc(OC(=O)c2ccn(CC)n2)cc1 | inconclusive: 25.1 µM [inhibitor, single point]
55 | COc1ccc(C(C)(C)C)cc1NC(=O)C1C2C=CC(C2)C1C(=O)O (stereo unspecified) | inconclusive: 20.6 µM [activator, partial curve]
56 | Cc1ccc(NC(=O)NCC2CCN(Cc3cc(C)ccc3Cl)CC2)c(C)c1 | inconclusive: 14.1 µM [inhibitor, single point]
57 | C=CCNC(=S)Nc1ccc(C)c(S(=O)(=O)N2CCCCC2)c1 | inactive
58 | Cc1cccc(Nc2nc(N)nc(N)c2S(=O)(=O)c2ccccc2)c1 | inactive
59 | CC(=O)Nc1ccc(S(=O)(=O)N(Cc2ccco2)Cc2cc3ccccc3[nH]c2=O)cc1 | inconclusive: 3.16 µM [activator, partial curve, poor fit]
60 | S=C1CN=C(c2ccccc2Cl)c2cc(Cl)ccc2N1 | inconclusive: 2.24 µM [inhibitor, partial curve, poor fit]
61 | O=C(CSc1nc2ncc(Cl)cc2[nH]1)c1ccc2c(c1)OCO2 | inconclusive: 2.51 µM [inhibitor, full curve, poor fit]
62 | O=C1C=C(Nc2ccccc2)c2ccccc2C1=O | active: 7.08 µM
63 | O=C(CN1C(=O)CCC1=O)Nc1nc(-c2cccs2)cs1 | inactive
64 | CCOc1cc(C=C(C(=O)OC)C(=O)OC)ccc1OCc1ccc([N+](=O)[O-])cc1 | active: 3.55 µM
65 | CCCCOc1ccc(C(O)C(CN2CCCCC2)c2ccccc2)cc1 (stereo unspecified) | inconclusive: 11.2 µM [inhibitor, partial curve, poor fit]
66 | COc1ccc(Nc2nc(N)nc(CN3CCN(c4ccc(F)cc4)CC3)n2)cc1 | inconclusive: 8.91 µM [inhibitor, partial curve, poor fit]
67 | CC(Oc1cc(-n2cnc3ccc(OCC4CCN(C)CC4)cc32)sc1C(N)=O)c1ccccc1C(F)(F)F (stereo unspecified) | inconclusive: 6.28 µM [inhibitor, partial curve, poor fit]
68 | Cn1c(SCC(=O)NCc2ccc3c(c2)OCO3)nc2c(c1=O)SCC2 | inactive
69 | O=c1c2ccccc2c(C=NCCCN2CCOCC2)c(O)n1Cc1ccccc1 | inactive
70 | Cc1cc(Nc2ccccc2)n(CCO)n1 | inconclusive: 2.91 µM [inhibitor, single point]
71 | COc1cccc(NC(=O)CSc2nc3c([nH]c4ccccc43)c(=O)n2-c2cc(C)cc(C)c2)c1 | inconclusive: 3.16 µM [inhibitor, full curve, poor fit]
